The assay can be described thus: qHTS Assay for Lipid Storage Modulators in Drosophila S3 Cells.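 As to cell number change: cells counted by Cell Tracker Red CMTPX staining in the red channel.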 To be noted: BODIPY lipid droplet fluorescence, 18-24 h; for cell number change: measured here: cell count max response, cells fed with added oleic acid. The method in brief: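 Drosophila S3 cells loaded with oleic acid (400 uM, as added) and compounds at several concentrations; lipid droplets imaged by 488-nm laser-scanning cytometry, 500–530 nm intensity and object ratio to cell channel. Percent activity normalized to 20 uM Triacsin C.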

The mark [1] stands for this setting: measured here: lipid fluorescence (Fed channel) AC50, cells fed with added oleic acid.
The mark [2] stands for this setting: measured here: cell number channel AC50, cells fed with added oleic acid.

This passage reports cell number change and AC50 results from PubChem BioAssay AID2685 (National Center for Advancing Translational Sciences (NCATS), 2010).

Some of the results follow. These are further read-outs of the screen, such as a control signal, another cell line or another target. No call is given for them. Compounds called inactive in the main read-out are mostly missing here. Words in brackets tell the shape of the fitted curve; partial curves, single points and poor fits give uncertain potencies.

On to `COc1ccc(C(=O)N2CCCC(CO)(Cc3ccccc3C)C2)o1` (configuration not stated), for which the cell number change was -14.7%. The AC50 under setting [1] was 0.00461 µM [falling, full curve, poor fit]. Take `CCC(C(=O)O)N1C(=O)/C(=C/c2cccn2C)SC1=S` (configuration not stated): the cell number change was -7.87%. Besides, under setting [1], the AC50 was 0.517 µM [falling, full curve, poor fit]. Consider `O=C(C1COc2ccccc2O1)N1CCN(c2nc3c(F)cc(F)cc3s2)CC1` (configuration not stated), for which the cell number change is -2.88%. On to `CC(C(=O)Nc1ccccc1C(F)(F)F)N1CCN(C)CC1` (configuration not stated), for which the cell number change worked out at 3.65%. For the same compound, under setting [1], the AC50 is 0.58 µM [rising, single point]. For `NC(=O)c1ccc(NC(=O)CNC(c2ccccc2)c2ccccc2)cc1`, the cell number change was found to be 16.3%. On the same count and under the same terms, the figure for `O=C1/C(=C/c2ccc(F)cc2)SC(=S)N1N1CCOCC1` is -7.68%. Regarding `CCOC(=O)C1CCN(C(=O)/C=C/c2cc(OC)c(OC)c(OC)c2)CC1`, the cell number change was -29.2%. For the same compound, the AC50 under setting [2] was 0.146 µM [rising, full curve, poor fit]. For `Cc1ccsc1C(=O)OCC(=O)Nc1cccc(F)c1`, the cell number change is -10.4%. Also, the AC50 under setting [1] is 6.51 µM [rising, partial curve, poor fit]. For `Cc1nn(-c2cc(N3CCCC3)ccc2[N+](=O)[O-])c(=O)c2ccccc12`, the cell number change was -1.52%. In addition, under setting [1], the AC50 was 6.51 µM [falling, partial curve, poor fit].

As for `CCOc1ccccc1NS(=O)(=O)c1csc(C(N)=O)c1`, the AC50 under setting [1] was 6.51 µM [rising, single point].

With `COc1ccc(N2C(N)=C(C#N)C(c3cccnc3)C3=C2CC(C)(C)CC3=O)cc1` (configuration not stated), the AC50 was 0.206 µM [rising, full curve] under setting [2] and 0.326 µM [rising, full curve] under setting [1]. For the compound `CC(C)NC(=O)NC(=O)COC(=O)c1ccc(NC(=O)CC#N)cc1`, the cell number change was found to be 5.39%. The AC50 under setting [1] is 6.51 µM [falling, single point]. Turning to `O=C(O)CSCC(=O)N1CCCCC1`, the cell number change is -8.27%. Besides, under setting [1], the half-maximal activity concentration (AC50) is 1.3 µM [falling, full curve, poor fit].

Regarding `O=C(CNCc1ccccc1)NCCCN1CCCC1=O`, the cell number change turned out to be 28.9%. Besides, under setting [2], the AC50 is 4.61 µM [rising, full curve, poor fit]. With `COc1ccc(CNC(=O)COC(=O)CCc2c[nH]c3ccccc23)cc1`, the cell number change is -6.46%. Besides, the AC50 under setting [2] was 2.59 µM [falling, single point]. Moreover, the AC50 under setting [1] was 4.61 µM [falling, single point]. For the compound `Cc1ccc(C(c2nnnn2CCC(C)C)N2CCN(C)CC2)cc1` (configuration not stated), the cell number change was -57.4%. The AC50 under setting [2] was 16.4 µM [falling, single point].

With `Cc1ccc(S(C)(=O)=O)cc1C(=O)Nc1ccc(S(=O)(=O)Nc2nccs2)cc1`, the cell number change is 16.9%. Further, the AC50 under setting [1] was 29.1 µM [rising, single point]. In the case of `Cc1ccc(NC(=O)c2ccc(NCCN)c([N+](=O)[O-])c2)cc1`, the cell number change is -24%. The AC50 under setting [2] was 0.82 µM [rising, full curve].

On to `COc1ccc(CCNC(=O)CCNC(=O)c2ccco2)cc1OC`, for which the cell number change is -12.7%. Besides, the AC50 under setting [1] is 6.51 µM [falling, single point]. Take `Cc1cnc(NC(=O)c2cc3c(C)nn(-c4ccccc4)c3s2)s1`: the AC50 reads like this: under setting [2], 0.259 µM [rising, full curve]; under setting [1], 0.651 µM [rising, partial curve, poor fit]. Turning to `CCOC(=O)Nc1cc(OCC)c(NC(=O)C2CC2)cc1OCC`, the cell number change was -0.625%.

For the compound `COc1cccc(C2N(c3cccc(Cl)c3)C(=O)C3CCCN32)c1` (configuration not stated), the cell number change turned out to be 56.7%. Besides, under setting [2], the AC50 is 25.9 µM [rising, single point].

Consider `CCCC1(c2ccccc2)NC(=O)N(CC(=O)N(C)Cc2c(F)cccc2Cl)C1=O` (configuration not stated), for which the cell number change worked out at 21.7%. Same read-out and setting: the figure for `CCOC(=O)c1ccc(S(=O)(=O)N2CCN(CC(=O)NC(=O)NC(C)(C)C)CC2)cc1` is 25%.

Take `Cc1cc2c(=O)n(Cc3ccco3)c(SCC(=O)NCc3ccco3)nc2s1`: the cell number change amounted to 35.8%. Besides, under setting [2], the AC50 was 4.61 µM [rising, full curve]. Under setting [1], the half-maximal activity concentration (AC50) was 6.51 µM [rising, single point].

`COc1cc(C(=O)Nc2ccccc2N2CCN(S(C)(=O)=O)CC2)cc(OC)c1OC`: the cell number change was found to be 6.12%. For the same compound, the AC50 under setting [1] was 29.1 µM [rising, single point]. Take `CCOC(=O)N1CCN(C(=O)c2ccc3c(c2)N(C)C(=O)/C(=C\c2ccc(OCC)c(OC)c2)S3)CC1`: the cell number change is -0.33%. Moreover, the AC50 under setting [1] is 2.31 µM [falling, partial curve].

With `COc1ccc(CCN(C)c2ccc(S(=O)(=O)N3CCCC3)cc2[N+](=O)[O-])cc1OC`, the cell number change worked out at 16.5%. Further, the AC50 under setting [1] is 0.146 µM [rising, partial curve, poor fit].

Regarding `COc1ccc(C2=NS(=O)(=O)N(C)C(C(=O)NC3CCCCC3)=C2)cc1OC`, the cell number change was -8.36%. For `CN(C)C(=S)Nc1ccc2c(c1)OCO2`, the cell number change is 11.9%. Moreover, under setting [1], the AC50 is 0.092 µM [falling, full curve, poor fit].

Consider `Cc1cc(Cl)ccc1OCC(=O)NNC(=O)C1CSC2(C)CCC(=O)N12` (configuration not stated), for which the cell number change is -2.41%. For the compound `Cc1cc(C)n(-c2ccc(C(=O)Nc3ccc(S(=O)(=O)N(C)C)cc3)cc2)n1`, the cell number change was 12.7%. Moreover, the AC50 under setting [1] was 4.61 µM [rising, partial curve, poor fit].

Regarding `COc1cc2c(C(=O)NCc3ccc4c(c3)OCO4)cn(C)c(=O)c2cc1OC`, the cell number change turned out to be 8.09%. Besides, the AC50 under setting [1] is 20.6 µM [rising, single point]. With `CCOC(=O)c1cc(-c2ccccc2C)n(CC2CC(c3cccc([N+](=O)[O-])c3)=NO2)n1` (configuration not stated), the cell number change amounted to 9.31%. Under setting [1], the AC50 is 4.11 µM [rising, single point]. As to `O=C(CCl)Nc1cc(-c2ccccc2)nn1-c1ccccc1`, the cell number change was -128%. Besides, the half-maximal activity concentration (AC50) under setting [2] was 18.4 µM [falling, single point]. Under setting [1], the AC50 is 18.4 µM [falling, partial curve]. Take `COc1ccc(C)cc1NC(=O)c1ccc2c(c1)OCO2`: the cell number change was -7.71%. Further, under setting [1], the AC50 is 0.103 µM [rising, full curve, poor fit]. `c1ccc(CSCCc2ccncc2)cc1`: the AC50 under setting [2] was 6.51 µM [rising, single point] and the AC50 under setting [1] was 18.4 µM [rising, partial curve]. With `CCCSc1nnc(-c2ccccc2N)c(=O)[nH]1`, the cell number change was -1.15%. In addition, the AC50 under setting [1] is 0.58 µM [falling, single point].

For `O=C(COC(=O)Cc1ccc(S(=O)(=O)N2CCOCC2)s1)NCCc1ccccc1`, the cell number change is 20.7%. Moreover, the AC50 under setting [1] was 29.1 µM [rising, single point]. `Cc1nnc(SCC(=O)NC2CCCC2)n1CCc1ccccc1`: the cell number change was 10.3%. For the compound `Cc1ccc(S(=O)(=O)NCCC(=O)Nc2cc(S(=O)(=O)N(C)C)ccc2C)cc1C`, the cell number change was -3.95%. Besides, the AC50 under setting [1] is 35.5 µM [falling, single point]. For the compound `Cc1cccc(-n2c(C)cc(/C=N/n3cnnc3)c2C)c1`, the cell number change was -23.5%. The AC50 under setting [1] was 1.64 µM [falling, partial curve]. In the case of `Cc1cccc(N2CCN(C(=O)NCc3ccc(F)cc3)CC2)c1C`, the cell number change was -2.25%. Also, the AC50 under setting [1] is 29.1 µM [rising, single point]. Turning to `CN(CCc1nc2ccc(Cl)cc2[nH]1)Cc1nc(CC2CC2)no1`, the cell number change turned out to be 6.53%. Besides, the AC50 under setting [1] is 20.6 µM [rising, single point].

For the compound `O=C1NC(=O)c2cc(NC(=O)c3cccc4ccccc34)ccc21`, the cell number change turned out to be 34.4%. In the case of `CC(C)c1ccccc1OCC(=O)NN1C(=O)c2ccccc2C1=O`, the cell number change was -10.8%. As for `CCOc1ccccc1CNC(=O)CCN1C(=O)COc2ccccc21`, under setting [1], the AC50 was 2.91 µM [rising, single point]. Turning to `Cc1cccc(NC2(C(F)(F)F)N=C3SCCN3C2=O)n1` (configuration not stated), the cell number change is -16.1%. Under setting [2], the AC50 is 0.731 µM [falling, full curve, poor fit]. Besides, the AC50 under setting [1] was 8.2 µM [falling, partial curve]. Consider `Cc1ccc(-c2ccc(=O)n(CC(=O)NCCCN3CCCCC3C)n2)cc1` (configuration not stated), for which the cell number change is -36.9%. For the same compound, the AC50 under setting [2] was 23.1 µM [falling, single point]. For the same compound, the AC50 under setting [1] was 18.4 µM [falling, single point]. Turning to `COc1ccc(C(CNC(=O)CNC(=O)c2cc(OC)c(OC)c(OC)c2)N2CCOCC2)cc1` (configuration not stated), the cell number change worked out at 0.641%. Regarding `CCc1ccc(CN2CCC(n3nccc3NC(=O)c3cccc(F)c3)CC2)cc1`, the cell number change worked out at 24.5%. Further, the AC50 under setting [1] is 0.731 µM [rising, full curve, poor fit].

Take `Cc1ccc(S(=O)(=O)N2CCCCC2)cc1NC(=O)CNc1ccc(C(F)(F)F)cc1`: the cell number change was 51%. The AC50 under setting [2] was 20.6 µM [rising, single point]. Besides, the AC50 under setting [1] was 18.4 µM [rising, partial curve]. Consider `O=C(O)c1ccc(NC(=S)NC(NC(=O)c2ccco2)C(Cl)(Cl)Cl)cc1` (configuration not stated), for which the cell number change was -86.7%. Further, under setting [2], the AC50 is 16.4 µM [falling, partial curve]. Further, under setting [1], the AC50 is 0.13 µM [falling, full curve, poor fit]. Take `CCOc1ccc(NC(=O)CSc2nc3c(c(=O)n2C)SC(C)C3)cc1` (configuration not stated): the AC50 runs as follows: under setting [2], 1.84 µM [rising, partial curve, poor fit]; under setting [1], 0.116 µM [rising, full curve, poor fit].

For `Cc1cc(C(=O)NCC2COc3ccccc3O2)c2ccccc2n1` (configuration not stated), the cell number change is 20.5%. With `CC(C)N(CC#CCC(O)(c1ccccc1)c1ccccc1)CCO`, the cell number change worked out at 1.91%. Also, under setting [1], the AC50 was 0.116 µM [falling, full curve, poor fit].

Take `COc1cc(/C=C/C(=O)NNC(=O)c2cccc(S(=O)(=O)N(C)C)c2)cc(OC)c1OC`: the cell number change turned out to be 0.803%. For the compound `CCOC(=O)c1cc(CC)sc1NC(=O)c1cc([N+](=O)[O-])ccc1N1CCOCC1`, the cell number change turned out to be 18%. The AC50 under setting [1] is 6.51 µM [rising, single point]. Turning to `S=c1[nH]nc(Cn2nnc3ccccc32)n1-c1ccccc1`, the cell number change was 7.05%. Consider `Cc1sc2ncnc(N3CCN(CCOc4ccc(Cl)cc4)CC3)c2c1C`, for which the AC50 under setting [1] was 2.06 µM [rising, partial curve]. On to `CCN(CC)CCn1c(=S)[nH]c2cc(C(=O)NCc3ccccc3Cl)ccc2c1=O`, for which the AC50 under setting [1] is 4.61 µM [falling, partial curve]. As for `O=[N+]([O-])c1cc(C(F)(F)F)ccc1NN=C1CCCC1`, the cell number change was found to be 121%. Moreover, under setting [2], the AC50 was 20.6 µM [rising, partial curve, poor fit].
